Source: patent US10159726B2, “Peptides, combination of peptides and scaffolds for use in immunotherapeutic treatment of various cancers” (Immatics Biotechnologies GmbH, priority 2015, dated 2018)

System: HLA-A*02 molecules of primary tumors
Experiment: Identification and relative LC-MS quantitation of HLA-A*02 tumor-associated peptides presented on tissue samples (XPRESIDENT presentation profiles)
Design: species or system human
Conditions: for number of cancer tissues on which the peptide was found presented / number of cell lines on which the peptide was found presented / number of normal tissues on which the peptide was found presented: FIG. 1 presentation profile, shown are only samples where the peptide was found to be presented
[1] = Table 8A: selected HLA-A*02-binding tumor-associated peptides, cancer entities on which the peptide was found presented
[2] = Table 8B: selected HLA-A*02 peptides, presentation on additional cancer entities

## 46 (SLAKHGIVAL; listed as Homo sapiens) [compound 46]
[1]
  Peptide Presentation on cancer entities: PC, NSCLC, CRC, RCC, OC, clPC, PCA, NHL
[2]
  Peptide Presentation on cancer entities: UBC, HNSCC, GB, CLL, MEL, UTC, HCC

## 49 (LLDESKLTL; listed as Homo sapiens) [compound 49]
[1]
  Peptide Presentation on cancer entities: UBC, OC, PCA, NSCLC, RCC

## 91 (SSLEPQIQPV; listed as Homo sapiens) [compound 91]
[2]
  Peptide Presentation on cancer entities: MEL, CLL

## 328 (SVDSAPAAV; listed as Homo sapiens) [compound 328]
[1]
  Peptide Presentation on cancer entities: SCLC, OC, PC, OSCAR, RCC, NSCLC, UBC
[2]
  Peptide Presentation on cancer entities: NHL, BRCA, AML, UTC, CLL, HNSCC, MEL

## 21 (SLYHRVLLY; listed as Homo sapiens) [compound 21]
[1]
  Peptide Presentation on cancer entities: RCC, OSCAR, NSCLC

## 24 (FLWNGEDSAL; listed as Homo sapiens) [compound 24]
[1]
  Peptide Presentation on cancer entities: PC, CRC
[2]
  Peptide Presentation on cancer entities: NSCLC, GC, UTC

## 63 (TLSSERDFAL; listed as Homo sapiens) [compound 63]
[1]
  Peptide Presentation on cancer entities: NSCLC, GC

## 16 (HLYNNEEQV; listed as Homo sapiens) [compound 16]
[1]
  Peptide Presentation on cancer entities: GBC_CCC, NSCLC, GB, clPC, CRC

## 71 (GLITVDIAL; listed as Homo sapiens) [compound 71]
[1]
  Peptide Presentation on cancer entities: SCLC, PCA
[2]
  Peptide Presentation on cancer entities: AML, MEL, UTC

## FITDFYTTV (listed as Homo sapiens) [SEQ ID NO: 66]
  number of cancer tissues on which the peptide was found presented: 13
  number of cell lines on which the peptide was found presented: 1
  number of normal tissues on which the peptide was found presented: 1

## 339 (VLGPGPPPL; listed as Homo sapiens) [compound 339]
[1]
  Peptide Presentation on cancer entities: NSCLC, clPC, CLL, NHL
[2]
  Peptide Presentation on cancer entities: MEL, GB, UTC, AML, HCC

## VLGPGPPPL (listed as Homo sapiens) [SEQ ID NO: 339]
  number of cancer tissues on which the peptide was found presented: 19
  number of cell lines on which the peptide was found presented: 2

## 26 (KVDGVVIQL; listed as Homo sapiens) [compound 26]
[1]
  Peptide Presentation on cancer entities: OSCAR, GC

## 93 (SLLTQPIFL; listed as Homo sapiens) [compound 93]
[1]
  Peptide Presentation on cancer entities: RCC, HCC
[2]
  Peptide Presentation on cancer entities: GBC_CCC

## 336 (GLMDGSPHFL; listed as Homo sapiens) [compound 336]
[1]
  Peptide Presentation on cancer entities: PC, NSCLC
[2]
  Peptide Presentation on cancer entities: MEL

## 323 (ILSVVNSQL; listed as Homo sapiens) [compound 323]
[1]
  Peptide Presentation on cancer entities: CRC, GC, BRCA, OC, CLL, NSCLC, NHL
[2]
  Peptide Presentation on cancer entities: MEL, GBC_CCC, AML, OSCAR

## 8 (KLGPFLLNA; listed as Homo sapiens) [compound 8]
[1]
  Peptide Presentation on cancer entities: GC, GB, clPC, NSCLC
[2]
  Peptide Presentation on cancer entities: UTC, HCC

## 57 (VLISSTVRL; listed as Homo sapiens) [compound 57]
[1]
  Peptide Presentation on cancer entities: clPC, RCC, CLL, NHL
[2]
  Peptide Presentation on cancer entities: MEL

## 7 (AAAAKVPEV; listed as Homo sapiens) [compound 7]
[1]
  Peptide Presentation on cancer entities: NSCLC, GB, CRC
[2]
  Peptide Presentation on cancer entities: MEL, HNSCC, NHL

## 55 (IASAIVNEL; listed as Homo sapiens) [compound 55]
[1]
  Peptide Presentation on cancer entities: BRCA, GC
[2]
  Peptide Presentation on cancer entities: HCC, GBC_CCC

## 29 (TLCNKTFTA; listed as Homo sapiens) [compound 29]
[1]
  Peptide Presentation on cancer entities: PCA, GB

## SLLSHVIVA (listed as Homo sapiens) [SEQ ID NO: 53]
  number of cancer tissues on which the peptide was found presented: 21
  number of cell lines on which the peptide was found presented: 3

## 79 (SLVPLQILL; listed as Homo sapiens) [compound 79]
[2]
  Peptide Presentation on cancer entities: HCC

## 322 (ALVSGGVAQA; listed as Homo sapiens) [compound 322]
[1]
  Peptide Presentation on cancer entities: GBC_CCC, OSCAR, BRCA, CLL, UBC, HCC, PC, SCLC, NSCLC, CRC, OC, NHL
[2]
  Peptide Presentation on cancer entities: AML, GC, clPC, UTC, MEL

## 10 (KTLDVFNIIL; listed as Homo sapiens) [compound 10]
[1]
  Peptide Presentation on cancer entities: CLL, GC, GBC_CCC, OSCAR

## 70 (GLFSQHFNL; listed as Homo sapiens) [compound 70]
[1]
  Peptide Presentation on cancer entities: HCC, NSCLC
[2]
  Peptide Presentation on cancer entities: BRCA, UTC, HNSCC, UBC, AML, OSCAR, clPC

## VLSPFILTL (listed as Homo sapiens) [SEQ ID NO: 42]
  number of cancer tissues on which the peptide was found presented: 18

## 11 (GVLKVFLENV; listed as Homo sapiens) [compound 11]
[1]
  Peptide Presentation on cancer entities: HCC, NSCLC, GC, OC, OSCAR

## HLYNNEEQV (listed as Homo sapiens) [SEQ ID NO: 16]
  number of cancer tissues on which the peptide was found presented: 15
  number of cell lines on which the peptide was found presented: 1

## 62 (SLFNQEVQI; listed as Homo sapiens) [compound 62]
[1]
  Peptide Presentation on cancer entities: CLL, NHL

## 39 (ALMAVVSGL; listed as Homo sapiens) [compound 39]
[1]
  Peptide Presentation on cancer entities: OSCAR, GBC_CCC, CLL, BRCA, HCC, UBC, NSCLC, OC, GC, MEL
[2]
  Peptide Presentation on cancer entities: HNSCC, NHL, UTC, AML

## 34 (LLPKKTESHHKT; listed as Homo sapiens) [compound 34]
[1]
  Peptide Presentation on cancer entities: CRC, HCC, NSCLC, GB
[2]
  Peptide Presentation on cancer entities: UTC

## 6 (FLDPAQRDL; listed as Homo sapiens) [compound 6]
[1]
  Peptide Presentation on cancer entities: UBC, NSCLC, GB, AML, clPC
[2]
  Peptide Presentation on cancer entities: MEL

## 78 (LLWGHPRVA; listed as Homo sapiens) [compound 78]
[2]
  Peptide Presentation on cancer entities: NSCLC

## SEQ ID No. 2 (ALYGKLLKL; listed as Homo sapiens)
Cancer entities named in the text as examples from Table 8
  presentation on various cancer entities: renal cancer, esophageal cancer, including cancer of the gastric-esophageal, glioblastoma

## 48 (TLDHKPVTV; listed as Homo sapiens) [compound 48]
[1]
  Peptide Presentation on cancer entities: OC, PCA, NSCLC

## RLLPKVQEV (listed as Homo sapiens) [SEQ ID NO: 325]
  number of cancer tissues on which the peptide was found presented: 22
  number of cell lines on which the peptide was found presented: 4

## 37 (ALINDILGELVKL; listed as Homo sapiens) [compound 37]
[1]
  Peptide Presentation on cancer entities: clPC, CRC, RCC, HCC
[2]
  Peptide Presentation on cancer entities: MEL, UTC

## 27 (KVFGDLDQV; listed as Homo sapiens) [compound 27]
[1]
  Peptide Presentation on cancer entities: OSCAR, GC

## 84 (FLEEEITRV; listed as Homo sapiens) [compound 84]
[1]
  Peptide Presentation on cancer entities: CRC, GC

## 77 (IVLSTIASV; listed as Homo sapiens) [compound 77]
[1]
  Peptide Presentation on cancer entities: clPC, CRC, PCA
[2]
  Peptide Presentation on cancer entities: AML

## 15 (ALGDYVHAC; listed as Homo sapiens) [compound 15]
[1]
  Peptide Presentation on cancer entities: HCC, GC

## 52 (ELLSSIFFL; listed as Homo sapiens) [compound 52]
[1]
  Peptide Presentation on cancer entities: UBC, NSCLC, CRC, RCC

## 58 (ALDDSLTSL; listed as Homo sapiens) [compound 58]
[1]
  Peptide Presentation on cancer entities: clPC, PC, GB

## 59 (ALTKILAEL; listed as Homo sapiens) [compound 59]
[1]
  Peptide Presentation on cancer entities: UBC, NSCLC
[2]
  Peptide Presentation on cancer entities: HCC

## 4 (ELAEIVFKV; listed as Homo sapiens) [compound 4]
[1]
  Peptide Presentation on cancer entities: CRC, CLL, NSCLC, GB

## SLLALPQDLQA (listed as Homo sapiens) [SEQ ID NO: 40]
  number of cancer tissues on which the peptide was found presented: 21

## 82 (VLLRVLIL; listed as Homo sapiens) [compound 82]
[1]
  Peptide Presentation on cancer entities: NSCLC, TC

## 12 (GLIYEETRGV; listed as Homo sapiens) [compound 12]
[1]
  Peptide Presentation on cancer entities: GC, OSCAR, NSCLC, NHL
[2]
  Peptide Presentation on cancer entities: AML, UTC, HNSCC

## LLLPLLPPLSPSLG (listed as Homo sapiens) [SEQ ID NO: 33]
  number of cancer tissues on which the peptide was found presented: 22
  number of cell lines on which the peptide was found presented: 1
  number of normal tissues on which the peptide was found presented: 1

## 88 (ILLNTEDLASL; listed as Homo sapiens) [compound 88]
[2]
  Peptide Presentation on cancer entities: RCC

## 13 (VLRDNIQGI; listed as Homo sapiens) [compound 13]
[1]
  Peptide Presentation on cancer entities: NSCLC, GBC_CCC, OC, GC, BRCA, OSCAR, CRC, GB, UEC, CLL, RCC, UBC, HCC, MEL, SCLC, NHL
[2]
  Peptide Presentation on cancer entities: AML, HNSCC

## 44 (GLLWQIIKV; listed as Homo sapiens) [compound 44]
[1]
  Peptide Presentation on cancer entities: CRC, NSCLC, GC

## 45 (VLGPTPELV; listed as Homo sapiens) [compound 45]
[1]
  Peptide Presentation on cancer entities: CRC, SCLC, GC, clPC, PC
[2]
  Peptide Presentation on cancer entities: OSCAR, GBC_CCC, BRCA

## 65 (KLDGICWQV; listed as Homo sapiens) [compound 65]
[2]
  Peptide Presentation on cancer entities: GBC_CCC, HCC
